Reference: paper PMC12204631

T1: 6HIS-HA-JHD2 (S. cerevisiae) (UniProt P47156)
T1 sequence: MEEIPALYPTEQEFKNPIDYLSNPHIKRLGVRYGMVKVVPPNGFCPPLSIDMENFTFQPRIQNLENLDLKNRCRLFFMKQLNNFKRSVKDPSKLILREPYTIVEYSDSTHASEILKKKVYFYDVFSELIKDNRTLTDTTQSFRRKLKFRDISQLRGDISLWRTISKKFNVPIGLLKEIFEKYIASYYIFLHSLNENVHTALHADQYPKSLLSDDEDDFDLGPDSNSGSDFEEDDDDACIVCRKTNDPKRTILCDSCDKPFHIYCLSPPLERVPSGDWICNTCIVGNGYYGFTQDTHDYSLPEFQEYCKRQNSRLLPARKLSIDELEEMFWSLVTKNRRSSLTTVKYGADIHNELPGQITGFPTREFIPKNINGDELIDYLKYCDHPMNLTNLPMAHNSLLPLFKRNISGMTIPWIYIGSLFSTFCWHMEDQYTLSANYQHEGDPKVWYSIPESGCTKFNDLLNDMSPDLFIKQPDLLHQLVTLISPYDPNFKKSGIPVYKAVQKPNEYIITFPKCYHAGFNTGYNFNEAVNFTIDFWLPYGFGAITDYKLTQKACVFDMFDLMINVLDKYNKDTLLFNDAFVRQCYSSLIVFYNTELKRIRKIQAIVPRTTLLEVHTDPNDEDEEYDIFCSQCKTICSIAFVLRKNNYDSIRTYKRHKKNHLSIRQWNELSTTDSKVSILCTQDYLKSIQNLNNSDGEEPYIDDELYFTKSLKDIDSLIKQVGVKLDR


Biological target: T1, 6HIS-HA-JHD2 (S. cerevisiae)
Assay: affinity purification with mass spectrometry; whole cell extracts of a wild-type strain with 6HIS-HA-JHD2 induced from the GAL1 promoter for 6 hours; Ni-NTA agarose and anti-HA agarose beads at 4°C for 24 hours; proteins found with the empty vector strain excluded

Row | Binder | binding
1 | PSE1 (protein, UniProt P32337 1-1089) MSALPEEVNRTLLQIVQAFASPDNQIRSVAEKALSEEWITENNIEYLLTFLAEQAAFSQDTTVAALSAVLFRKLALKAPPSSKLMIMSKNITHIRKEVLAQIRSSLLKGFLSERADSIRHKLSDAIAECVQDDLPAWPELLQALIESLKSGNPNFRESSFRILTTVPYLITAVDINSILPIFQSGFTDASDNVKIAAVTAFVGYFKQLPKSEWSKLGILLPSLLNSLPRFLDDGKDDALASVFESLIELVELAPKLFKDMFDQIIQFTDMVIKNKDLEPPARTTALELLTVFSENAPQMCKSNQNYGQTLVMVTLIMMTEVSIDDDDAAEWIESDDTDDEEEVTYDHARQALDRVALKLGGEYLAAPLFQYLQQMITSTEWRERFAAMMALSSAAEGCADVLIGEIPKILDMVIPLINDPHPRVQYGCCNVLGQISTDFSPFIQRTAHDRILPALISKLTSECTSRVQTHAAAALVNFSEFASKDILEPYLDSLLTNLLVLLQSNKLYVQEQALTTIAFIAEAAKNKFIKYYDTLMPLLLNVLKVNNKDNSVLKGKCMECATLIGFAVGKEKFHEHSQELISILVALQNSDIDEDDALRSYLEQSWSRICRILGDDFVPLLPIVIPPLLITAKATQDVGLIEEEEAANFQQYPDWDVVQVQGKHIAIHTSVLDDKVSAMELLQSYATLLRGQFAVYVKEVMEEIALPSLDFYLHDGVRAAGATLIPILLSCLLAATGTQNEELVLLWHKASSKLIGGLMSEPMPEITQVYHNSLVNGIKVMGDNCLSEDQLAAFTKGVSANLTDTYERMQDRHGDGDEYNENIDEEEDFTDEDLLDEINKSIAAVLKTTNGHYLKNLENIWPMINTFLLDNEPILVIFALVVIGDLIQYGGEQTASMKNAFIPKVTECLISPDARIRQAASYIIGVCAQYAPSTYADVCIPTLDTLVQIVDFPGSKLEENRSSTENASAAIAKILYAYNSNIPNVDTYTANWFKTLPTITDKEAASFNYQFLSQLIENNSPIVCAQSNISAVVDSVIQALNERSLTEREGQTVISSVKKLLGFLPSSDAMAIFNRYPADIMEKVHKWFA | binds
2 | NUP120 (protein, UniProt P35729 1-1037) MACLSRIDANLLQYYEKPEPNNTVDLYVSNNSNNNGLKEGDKSISTPVPQPYGSEYSNCLLLSNSEYICYHFSSRSTLLTFYPLSDAYHGKTINIHLPNASMNQRYTLTIQEVEQQLLVNVILKDGSFLTLQLPLSFLFSSANTLNGEWFHLQNPYDFTVRVPHFLFYVSPQFSVVFLEDGGLLGLKKVDGVHYEPLLFNDNSYLKSLTRFFSRSSKSDYDSVISCKLFHERYLIVLTQNCHLKIWDLTSFTLIQDYDMVSQSDSDPSHFRKVEAVGEYLSLYNNTLVTLLPLENGLFQMGTLLVDSSGILTYTFQNNIPTNLSASAIWSIVDLVLTRPLELNVEASYLNLIVLWKSGTASKLQILNVNDESFKNYEWIESVNKSLVDLQSEHDLDIVTKTGDVERGFCNLKSRYGTQIFERAQQILSENKIIMAHNEDEEYLANLETILRDVKTAFNEASSITLYGDEIILVNCFQPYNHSLYKLNTTVENWFYNMHSETDGSELFKYLRTLNGFASTLSNDVLRSISKKFLDIITGELPDSMTTVEKFTDIFKNCLENQFEITNLKILFDELNSFDIPVVLNDLINNQMKPGIFWKKDFISAIKFDGFTSIISLESLHQLLSIHYRITLQVLLTFVLFDLDTEIFGQHISTLLDLHYKQFLLLNLYRQDKCLLAEVLLKDSSEFSFGVKFFNYGQLIAYIDSLNSNVYNASITENSFFMTFFRSYIIENTSHKNIRFFLENVECPFYLRHNEVQEFMFAMTLFSCGNFDQSYEIFQLHDYPEAINDKLPTFLEDLKSENYHGDSIWKDLLCTFTVPYRHSAFYYQLSLLFDRNNSQEFALKCISKSAEYSLKEIQIEELQDFKEKQHIHYLNLLIHFRMFEEVLDVLRLGHECLSDTVRTNFLQLLLQEDIYSRDFFSTLLRLCNAHSDNGELYLRTVDIKIVDSILSQNLRSGDWECFKKLYCFRMLNKSERAAAEVLYQYILMQADLDVIRKRKCYLMVINVLSSFDSAYDQWILNGSKVVTLTDLRDELRGL | binds
3 | PER33 (protein, UniProt Q12144 1-273) MTVPRNRPMAPFGTIIKSRIKQPQFYWFIGHFLTIFNFIQFHLSITSKQNQLSCYRRSLFYISVTYAIVLYQFFKSDQLKFNFTLLRQEMKKLDNLQYFAMLFILFLLSQFNIIISGSLYSPVIFSIFHFLNYFKENLLPFLPLIPLNLKNLLNSKITVFIQNYNGFFLQMAQVFEIICGLRVGLFLVPFNFFLLLVRRANVSFEVVGTMLAGLTYVWFFKLRYLQSESMRQIFKQYVLRLDAYVSRTLPPYCSRLWNGYKNFVMTVFWKIPV | binds
4 | CBF2 (protein, UniProt P32504 1-956) MRSSILFLLKLMKIMDVQQQQEAMSSEDRFQELVDSLKPRTAHQYKTYYTKYIQWCQLNQIIPTPEDNSVNSVPYKDLPISAELIHWFLLDTLITDDKPGEKREETEDLDEEEENSFKIATLKKIIGSLNFLSKLCKVHENPNANIDTKYLESVTKLHTHWIDSQKAITTNETNNTNTQVLCPPLLKVSLNLWNPETNHLSEKFFKTCSEKLRFLVDFQLRSYLNLSFEERSKIRFGSLKLGKRDRDAIIYHKVTHSAEKKDTPGHHQLLALLPQDCPFICPQTTLAAYLYLRFYGIPSVSKGDGFPNLNADENGSLLQDIPILRGKSLTTYPREETFSNYYTTVFRYCHLPYKRREYFNKCNLVYPTWDEDTFRTFFNEENHGNWLEQPEAFAFPDKIPFDFKKIMNFKSPYTSYSTNAKKDPFPPPKDLLVQIFPEIDEYKRHDYEGLSQNSRDFLDLMEVLRERFLSNLPWIYKFFPNHDIFQDPIFGNSDFQSYFNDKTIHSKGSPILSFDILPGFNKIYKNKTNFYSLLIERPSQLTFASSHNPDTHPTQKQESEGPLQMSQLDTTQLNELLKQQSFEYVQFQTLSNFQILLSVFNKIFEKLEMKKSSRGYILHQLNLFKITLDERIKKSKIDDADKFIRDNQPIKKEENIVNEDGPNTSRRTKRPKQIRLLSIADSSDESSTEDSNVFKKDGESIEDGAYGENEDENDSEMQEQLKSMINELINSKISTFLRDQMDQFELKINALLDKILEEKVTRIIEQKLGSHTGKFSTLKRPQLYMTEEHNVGFDMEVPKKLRTSGKYAETVKDNDDHQAMSTTASPSPEQDQEAKSYTDEQEFMLDKSIDSIEGIILEWFTPNAKYANQCVHSMNKSGNKSWRANCEALYKERKSIVEFYIYLVNHESLDRYKAVDICEKLRDQNEGSFSRLAKFLRKWRHDHQNSFDGLLVYLSN | binds
5 | AFT1 (protein, UniProt P22149 1-690) MEGFNPADIEHASPINSSDSHSSSFVYALPKSASEYVVNHNEGRASASGNPAAVPSPIMTLNLKSTHSLNIDQHVHTSTSPTETIGHIHHVEKLNQNNLIHLDPVPNFEDKSDIKPWLQKIFYPQGIELVIERSDAFKVVFKCKAAKRGRNARRKRKDKPKGQDHEDEKSKINDDELEYASPSNATVTNGPQTSPDQTSSIKPKKKRCVSRFNNCPFRVRATYSLKRKRWSIVVMDNNHSHQLKFNPDSEEYKKFKEKLRKDNDVDAIKKFDELEYRTLANLPIPTATIPCDCGLTNEIQSFNVVLPTNSNVTSSASSSTVSSISLDSSNASKRPCLPSVNNTGSINTNNVRKPKSQCKNKDTLLKRTTMQNFLTTKSRLRKTGTPTSSQHSSTAFSGYIDDPFNLNEILPLPASDFKLNTVTNLNEIDFTNIFTKSPHPHSGSTHPRQVFDQLDDCSSILFSPLTTNTNNEFEGESDDFVHSPYLNSEADFSQILSSAPPVHHDPNETHQENQDIIDRFANSSQEHNEYILQYLTHSDAANHNNIGVPNNNSHSLNTQHNVSDLGNSLLRQEALVGSSSTKIFDELKFVQNGPHGSQHPIDFQHVDHRHLSSNEPQVRSHQYGPQQQPPQQLQYHQNQPHDGHNHEQHQTVQKDMQTHESLEIMGNTLLEEFKDIKMVNGELKYVKPED | binds

Second part, the binder after the results:

Row | binding | Binder
6 | binds | SEH1 (protein, UniProt P53011 1-349) MQPFDSGHDDLVHDVVYDFYGRHVATCSSDQHIKVFKLDKDTSNWELSDSWRAHDSSIVAIDWASPEYGRIIASASYDKTVKLWEEDPDQEECSGRRWNKLCTLNDSKGSLYSVKFAPAHLGLKLACLGNDGILRLYDALEPSDLRSWTLTSEMKVLSIPPANHLQSDFCLSWCPSRFSPEKLAVSALEQAIIYQRGKDGKLHVAAKLPGHKSLIRSISWAPSIGRWYQLIATGCKDGRIRIFKITEKLSPLASEESLTNSNMFDNSADVDMDAQGRSDSNTEEKAELQSNLQVELLSEHDDHNGEVWSVSWNLTGTILSSAGDDGKVRLWKATYSNEFKCMSVITAQQ
7 | binds | UIP4 (protein, UniProt Q08926 1-304) MVTIVFDHPAEDFPELKIAGEFTNWEGVPMKINTSSGKWEYKFDESSVTKHNDKDKVHFKFIDQNGNWFADDEYPKEVDEHSNENNVATLNNEEDGGSAGEEKDEGDKTAHNTNENGSELYYEGPETPTPSLKGNVTFPSPKTAISQDGSAFAKETTRKERKYEHAPLNEVPVERDPKEENKELSPNFSQEQTENKQDKGLDNLSEGNDNDNTRVNEDTDVTDTQESEHEINGSDTENTDMSEQEEIQKIDKPADQNAKSIVKEGDANTEDYESVLKKLLGALGRFFGSWFSWLTTKMSSSEAS
8 | binds | SNL1 (protein, UniProt P40548 1-159) MSHNAMEHWKSKLSKTSTSTYVLLAVIAVVFLVTIRRPNGSKGKSSKKRASKKNKKGKNQFEKAPVPLTLEEQIDNVSLRYGNELEGRSKDLINRFDVEDEKDIYERNYCNEMLLKLLIELDSIDLINVDESLRRPLKEKRKGVIKEIQAMLKSLDSLK

Results are given in words; binding and its absence hold for the method and conditions named. Binding seen in cells or lysates may run through a third protein. Here binding means that the protein was enriched with, or labelled near, the bait; the list need not be complete. Tags and fused reporters may be left off the sequences shown.
